# Assay results taken from publication PMC9746826.
# Chains of the proteins cited; added tags and fusions are not shown.
# UniProt O88444: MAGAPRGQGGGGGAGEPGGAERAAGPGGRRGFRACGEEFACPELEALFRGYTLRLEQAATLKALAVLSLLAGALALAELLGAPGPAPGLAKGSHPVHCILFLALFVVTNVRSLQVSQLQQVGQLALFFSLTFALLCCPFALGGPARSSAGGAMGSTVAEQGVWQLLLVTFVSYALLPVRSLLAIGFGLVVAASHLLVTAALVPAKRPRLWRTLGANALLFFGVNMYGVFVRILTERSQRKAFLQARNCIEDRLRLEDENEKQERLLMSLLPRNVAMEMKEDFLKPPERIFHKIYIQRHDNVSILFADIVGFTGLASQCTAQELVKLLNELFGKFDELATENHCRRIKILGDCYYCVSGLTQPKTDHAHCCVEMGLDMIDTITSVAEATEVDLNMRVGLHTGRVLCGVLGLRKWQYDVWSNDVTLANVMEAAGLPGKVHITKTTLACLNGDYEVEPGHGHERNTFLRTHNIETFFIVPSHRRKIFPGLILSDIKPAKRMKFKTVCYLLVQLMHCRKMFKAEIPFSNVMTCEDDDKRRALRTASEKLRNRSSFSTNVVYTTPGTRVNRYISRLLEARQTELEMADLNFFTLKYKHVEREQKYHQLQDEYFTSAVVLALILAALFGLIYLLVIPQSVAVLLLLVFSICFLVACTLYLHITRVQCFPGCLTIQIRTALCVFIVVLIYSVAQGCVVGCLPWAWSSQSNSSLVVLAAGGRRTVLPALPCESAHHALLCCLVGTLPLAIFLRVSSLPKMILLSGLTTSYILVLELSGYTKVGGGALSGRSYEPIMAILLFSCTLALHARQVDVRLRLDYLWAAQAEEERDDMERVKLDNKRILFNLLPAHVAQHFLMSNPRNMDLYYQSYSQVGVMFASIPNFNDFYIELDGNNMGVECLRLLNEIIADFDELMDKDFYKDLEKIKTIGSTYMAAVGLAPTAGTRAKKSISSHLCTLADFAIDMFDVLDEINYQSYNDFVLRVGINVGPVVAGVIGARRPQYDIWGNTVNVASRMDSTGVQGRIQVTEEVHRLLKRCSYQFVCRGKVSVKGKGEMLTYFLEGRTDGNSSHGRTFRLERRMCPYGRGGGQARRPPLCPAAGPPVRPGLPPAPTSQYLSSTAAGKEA
# UniProt Q01815: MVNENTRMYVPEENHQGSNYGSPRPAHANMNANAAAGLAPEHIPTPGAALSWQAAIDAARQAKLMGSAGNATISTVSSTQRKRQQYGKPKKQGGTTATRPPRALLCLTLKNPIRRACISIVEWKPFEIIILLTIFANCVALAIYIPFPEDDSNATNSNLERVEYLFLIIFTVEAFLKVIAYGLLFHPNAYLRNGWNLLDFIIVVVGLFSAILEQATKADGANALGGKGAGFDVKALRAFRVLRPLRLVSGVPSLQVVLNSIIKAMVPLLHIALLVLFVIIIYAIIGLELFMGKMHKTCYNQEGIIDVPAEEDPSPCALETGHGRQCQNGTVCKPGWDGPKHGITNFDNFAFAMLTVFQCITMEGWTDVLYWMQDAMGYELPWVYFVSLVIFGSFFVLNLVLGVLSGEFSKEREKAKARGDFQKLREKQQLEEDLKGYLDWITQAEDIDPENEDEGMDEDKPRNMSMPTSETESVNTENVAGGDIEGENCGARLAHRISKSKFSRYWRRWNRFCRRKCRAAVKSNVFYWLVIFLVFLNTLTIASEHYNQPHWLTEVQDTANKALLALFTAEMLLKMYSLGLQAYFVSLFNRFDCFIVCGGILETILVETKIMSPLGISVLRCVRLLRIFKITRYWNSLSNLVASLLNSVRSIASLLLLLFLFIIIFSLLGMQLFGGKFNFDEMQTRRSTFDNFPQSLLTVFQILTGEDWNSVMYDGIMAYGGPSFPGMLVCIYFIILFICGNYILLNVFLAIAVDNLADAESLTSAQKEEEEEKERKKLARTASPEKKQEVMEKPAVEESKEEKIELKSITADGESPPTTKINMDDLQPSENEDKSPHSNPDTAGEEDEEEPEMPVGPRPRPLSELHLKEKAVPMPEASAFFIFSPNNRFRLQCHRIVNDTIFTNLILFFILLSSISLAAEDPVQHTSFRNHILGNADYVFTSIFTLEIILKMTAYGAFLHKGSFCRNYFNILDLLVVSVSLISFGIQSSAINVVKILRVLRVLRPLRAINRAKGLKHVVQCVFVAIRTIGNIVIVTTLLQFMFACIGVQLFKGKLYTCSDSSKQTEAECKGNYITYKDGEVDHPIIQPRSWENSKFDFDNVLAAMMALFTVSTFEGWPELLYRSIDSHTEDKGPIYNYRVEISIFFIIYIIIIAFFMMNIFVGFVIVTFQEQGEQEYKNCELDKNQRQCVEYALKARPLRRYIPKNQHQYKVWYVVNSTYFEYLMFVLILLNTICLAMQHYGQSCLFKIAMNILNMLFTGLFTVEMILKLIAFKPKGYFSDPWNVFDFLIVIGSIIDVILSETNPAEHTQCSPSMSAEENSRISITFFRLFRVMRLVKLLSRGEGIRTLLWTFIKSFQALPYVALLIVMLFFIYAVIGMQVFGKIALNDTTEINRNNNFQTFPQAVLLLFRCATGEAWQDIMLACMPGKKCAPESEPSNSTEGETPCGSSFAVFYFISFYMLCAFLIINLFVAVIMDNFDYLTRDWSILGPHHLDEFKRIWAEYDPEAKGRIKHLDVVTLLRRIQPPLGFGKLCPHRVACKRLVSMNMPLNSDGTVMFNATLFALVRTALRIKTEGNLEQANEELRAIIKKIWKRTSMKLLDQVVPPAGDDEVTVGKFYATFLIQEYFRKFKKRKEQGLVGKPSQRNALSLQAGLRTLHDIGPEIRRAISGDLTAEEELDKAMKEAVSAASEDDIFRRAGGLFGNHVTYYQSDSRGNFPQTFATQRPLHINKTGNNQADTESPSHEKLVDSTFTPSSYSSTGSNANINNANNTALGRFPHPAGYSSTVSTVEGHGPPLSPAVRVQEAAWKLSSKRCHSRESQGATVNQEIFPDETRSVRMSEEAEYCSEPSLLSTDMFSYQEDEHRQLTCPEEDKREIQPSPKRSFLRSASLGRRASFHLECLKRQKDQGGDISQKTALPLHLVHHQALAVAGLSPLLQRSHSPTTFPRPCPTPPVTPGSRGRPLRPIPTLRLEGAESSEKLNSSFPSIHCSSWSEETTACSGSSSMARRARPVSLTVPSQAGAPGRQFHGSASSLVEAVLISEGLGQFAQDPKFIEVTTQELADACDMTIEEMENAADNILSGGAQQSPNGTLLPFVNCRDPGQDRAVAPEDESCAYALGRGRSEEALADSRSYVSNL
# UniProt P34971: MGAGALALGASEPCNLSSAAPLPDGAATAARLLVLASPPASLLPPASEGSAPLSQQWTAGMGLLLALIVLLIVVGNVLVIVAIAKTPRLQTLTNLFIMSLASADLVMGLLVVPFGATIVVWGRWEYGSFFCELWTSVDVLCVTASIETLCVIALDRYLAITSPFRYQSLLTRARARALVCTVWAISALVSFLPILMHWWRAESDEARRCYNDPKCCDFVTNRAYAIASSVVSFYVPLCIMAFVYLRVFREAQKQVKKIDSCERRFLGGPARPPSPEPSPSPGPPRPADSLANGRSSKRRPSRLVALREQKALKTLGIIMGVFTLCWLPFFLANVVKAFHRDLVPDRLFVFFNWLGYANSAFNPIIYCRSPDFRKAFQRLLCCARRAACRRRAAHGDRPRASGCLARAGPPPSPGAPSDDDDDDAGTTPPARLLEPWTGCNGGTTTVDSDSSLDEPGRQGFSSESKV
# UniProt P18762: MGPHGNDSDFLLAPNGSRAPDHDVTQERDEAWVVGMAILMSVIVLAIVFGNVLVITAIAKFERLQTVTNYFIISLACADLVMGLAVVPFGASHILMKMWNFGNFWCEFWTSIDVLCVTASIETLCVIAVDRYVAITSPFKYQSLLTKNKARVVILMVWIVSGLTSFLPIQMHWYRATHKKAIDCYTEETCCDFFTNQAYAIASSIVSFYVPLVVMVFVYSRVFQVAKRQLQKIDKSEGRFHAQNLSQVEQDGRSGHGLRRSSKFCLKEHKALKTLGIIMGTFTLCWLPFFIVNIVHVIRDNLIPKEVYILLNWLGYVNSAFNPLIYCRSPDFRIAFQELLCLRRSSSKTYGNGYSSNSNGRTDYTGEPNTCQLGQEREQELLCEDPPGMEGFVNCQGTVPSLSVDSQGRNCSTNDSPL
# These are yes or no findings as the source states them, for the method shown. Binding seen in cells or lysates may run through a third protein. Some results given as binding are weak or reduced against the parent protein; the word gives no strength.
# B1: hyperpolarization-activated cyclic nucleotide-gated 4 (HCN4) channel (protein, UniProt O70507 1-1201)
# chain: MDKLPPSMRKRLYSLPQQVGAKAWIMDEEEDGEEEGAGGRQDPSRRSIRLRPLPSPSPSVAAGCSESRGAALGATESEGPGRSAGKSSTNGDCRRFRGSLASLGSRGGGSGGAGGGSSLGHLHDSAEERRLIAAEGDASPGEDRTPPGLATEPERPATAAQPAASPPPQQPPQPASASCEQPSADTAIKVEGGAAASDQILPEAEVRLGQSGFMQRQFGAMLQPGVNKFSLRMFGSQKAVEREQERVKSAGFWIIHPYSDFRFYWDLTMLLLMVGNLIIIPVGITFFKDENTTPWIVFNVVSDTFFLIDLVLNFRTGIVVEDNTEIILDPQRIKMKYLKSWFVVDFISSIPVDYIFLIVETRIDSEVYKTARALRIVRFTKILSLLRLLRLSRLIRYIHQWEEIFHMTYDLASAVVRIVNLIGMMLLLCHWDGCLQFLVPMLQDFPHDCWVSINGMVNNSWGKQYSYALFKAMSHMLCIGYGRQAPVGMSDVWLTMLSMIVGATCYAMFIGHATALIQSLDSSRRQYQEKYKQVEQYMSFHKLPPDTRQRIHDYYEHRYQGKMFDEESILGELSEPLREEIINFNCRKLVASMPLFANADPNFVTSMLTKLRFEVFQPGDYIIREGTIGKKMYFIQHGVVSVLTKGNKETKLADGSYFGEICLLTRGRRTASVRADTYCRLYSLSVDNFNEVLEEYPMMRRAFETVALDRLDRIGKKNSILLHKVQHDLNSGVFNYQENEIIQQIVRHDREMAHCAHRVQAAASATPTPTPVIWTPLIQAPLQAAAATTSVAIALTHHPRLPAAIFRPPPGPGLGNLGAGQTPRHPRRLQSLIPSALGSASPASSPSQVDTPSSSSFHIQQLAGFSAPPGLSPLLPSSSSSPPPGACGSPPAPTPSTSTAAAASTTGFGHFHKALGGSLSSSDSPLLTPLQPGARSPQAAQPPPPLPGARGGLGLLEHFLPPPPSSRSPSSSPGQLGQPPGELSLGLAAGPSSTPETPPRPERPSFMAGASGGASPVAFTPRGGLSPPGHSPGPPRTFPSAPPRASGSHGSLLLPPASSPPPPQVPQRRGTPPLTPGRLTQDLKLISASQPALPQDGAQTLRRASPHSSGESVAAFSLYPRAGGGSGSSGGLGPPGRPYGAIPGQHVTLPRKTSSGSLPPPLSLFGARAASSGGPPLTTAAPQREPGARSEPVRSKLPSNL
# B2: Caveolin-3 (protein, UniProt P51637 1-151)
# chain: MMTEEHTDLEARIIKDIHCKEIDLVNRDPKNINEDIVKVDFEDVIAEPEGTYSFDGVWKVSFTTFTVSKYWCYRLLSTLLGVPLALLWGFLFACISFCHIWAVVPCIKSYLIEIQCISHIYSLCIRTFCNPLFAALGQVCSNIKVVLRREG
# Target: Adenylyl cyclase isoform 1 (mouse (endogenous in SAN cells)) (UniProt O88444)
# Test: proximity ligation; Duolink In Situ PLA kit on isolated mouse SAN cells; puncta per unit area against negative controls where only 1 antibody was used; shows whether the 2 proteins are ≤ 40 nm apart
row,binding,Molecule
1,binds,voltage-gated Ca2+ channel (Cav1.2) (from UniProt Q01815 1-2139)
2,binds,β1-adrenergic receptor (from UniProt P34971 1-466)
3,binds,β2-adrenergic receptor (from UniProt P18762 1-418)
4,binds,B1
5,binds,B2
